Values from PubChem BioAssay AID743121 (NCATS, 2013).
This is a random part of about 26,000 deposited reagents. 167 of all reagents (0.63%) were called active. 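Calls are per gene from RSA p-values that are not deposited; an individual active-marked siRNA can sensitise only weakly.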 The numbers tell different reagents against one gene apart. Further read-outs or replicates are left out here.

- Screen: 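Partners whose loss is lethal together with topoisomerase I blockade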 (primary screen)
- Cell system: MDA-MB-231 cells, a human breast cancer line
- Knock-down reagent: single siRNA against human genes, 20 nM siRNA (0.8 pmol per well)
- Timing: 120 h (drug added 48 h after transfection, read 72 h later)
- Treatment: camptothecin 20 nM (about EC30) for 72 h; vehicle 0.1% DMSO in parallel plates
- Measurement: 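CellTiter-Glo ATP signal, scaled to control siRNA as percent viability; sensitisation given as log2 of untreated divided by camptothecin-treated viability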
- Scale: log2 vehicle/camptothecin viability: higher = stronger sensitisation to camptothecin; viability with camptothecin: higher = more viable cells
- Units: viability with camptothecin in % of control
- Call rule: 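Each gene scored by redundant siRNA activity (RSA) over its individual siRNA ratios; a gene is called active at p < 0.001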

Depletion of PFN2 #1 gave: log2 vehicle/camptothecin viability -0.278; viability with camptothecin 103; inactive.
Against PFN2 #2 the deposit lists log2 vehicle/camptothecin viability 0.00348; viability with camptothecin 89.5; inactive.
After knock-down of PFN2 #3, the record shows log2 vehicle/camptothecin viability -0.214; viability with camptothecin 118; inactive.
PFN2 #4 showed log2 vehicle/camptothecin viability -0.19; viability with camptothecin 110; inactive.
Depletion of LRR1 #1 resulted in: log2 vehicle/camptothecin viability -0.243; viability with camptothecin 71.2; inactive.
Against LRR1 #2, the entry reads log2 vehicle/camptothecin viability -0.409; viability with camptothecin 112; inactive.
Silencing of LRR1 #3 gave: log2 vehicle/camptothecin viability 0.249; viability with camptothecin 69.4; inactive.
With knock-down of LRR1 #4, the screen gave log2 vehicle/camptothecin viability -0.495; viability with camptothecin 105; inactive.
With knock-down of TEK #1, the record shows log2 vehicle/camptothecin viability -0.173; viability with camptothecin 88.4; inactive.
For TEK #2 the deposit lists log2 vehicle/camptothecin viability -0.748; viability with camptothecin 70.3; inactive.
With knock-down of TEK #3, the screen gave log2 vehicle/camptothecin viability -0.115; viability with camptothecin 127; inactive.
TEK #4 scored log2 vehicle/camptothecin viability 0.00224; viability with camptothecin 69; inactive.
Against CCL11 #1 the deposit lists log2 vehicle/camptothecin viability -0.0933; viability with camptothecin 92; inactive.
CCL11 #2 scored log2 vehicle/camptothecin viability -0.373; viability with camptothecin 84.1; inactive.
Against CCL11 #3, the values are log2 vehicle/camptothecin viability -0.146; viability with camptothecin 78.9; inactive.
Depletion of CCL11 #4 came out at: log2 vehicle/camptothecin viability 0.0784; viability with camptothecin 44.8; inactive.
For BID #1, the entry reads log2 vehicle/camptothecin viability -0.103; viability with camptothecin 109; inactive.
BID #2 scored log2 vehicle/camptothecin viability -0.0688; viability with camptothecin 18.3; inactive.
After knock-down of BID #3, the record shows log2 vehicle/camptothecin viability -0.128; viability with camptothecin 90.1; inactive.
BID #4 gave log2 vehicle/camptothecin viability 0.0689; viability with camptothecin 93.8; inactive.
Against CGA #1, the entry reads log2 vehicle/camptothecin viability -0.236; viability with camptothecin 85.7; inactive.
Against CGA #2 the deposit lists log2 vehicle/camptothecin viability 0.12; viability with camptothecin 23.9; inactive.
With knock-down of CGA #3, the record shows log2 vehicle/camptothecin viability -0.424; viability with camptothecin 79.7; inactive.
Knock-down of CGA #4 came out at: log2 vehicle/camptothecin viability 0.415; viability with camptothecin 39.6; inactive.
